Experimental data: PubChem BioAssay AID1224826 (NIAID, 2016)
Here is a random part of about 17,000 reagents. Of all reagents, about 1,110 (6.6%) got an active call. 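Active means lowered or raised reporter signal; replicate intensities are raw and not normalised per plate.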 Entries without a mark were called inactive. The numbers tell different reagents against one gene apart. Not all columns of the deposit are shown.

- Assay: 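Genes that change LPS-induced Tnf promoter activity in mouse macrophages when knocked down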 (primary screen)
- System: RAW264.7 G9 macrophages from mouse bearing reporters for p65 (GFP) and the Tnf promoter (mCherry)
- Reagent: siRNA pool against mouse genes, 100 nM
- Time to read-out: 16 h of LPS stimulation, after 2 days of siRNA transfection
- Treatment: bacterial lipopolysaccharide (Salmonella minnesota R595), 10 ng/ml
- Read-out: 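Imaged Tnf reporter mCherry in nuclei, minus background, normalised per plate to the median and expressed as robust z-scores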
- Scale: Tnf reporter robust z-score: higher = stronger Tnf promoter reporter signal after LPS
- Active means: 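a well counts as active at a score of -1.3 or below (Tlr4 knock-down control median) or above 3 (raised signal); controls and wells holding fewer than 50 cells are excluded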
- Calls: active = Tnf reporter clearly lowered or raised; inactive = no clear change in Tnf reporter

| gene | reagent | Tnf reporter robust z-score | fewer than 50 cells in well |
| --- | --- | --- | --- |
| Mrpl48 (mitochondrial ribosomal protein L48) | 1 | 1.03 | enough cells in well |
| Umps (uridine monophosphate synthetase) | 1 | 0.29 | enough cells in well |
| Sox9 (SRY (sex determining region Y)-box 9) | 1 | 0.52 | enough cells in well |
| Pglyrp1 (peptidoglycan recognition protein 1) | 1 | 0.09 | enough cells in well |
| Or8k22 (olfactory receptor family 8 subfamily K member 22) | 1 | 0.01 | enough cells in well |
| Recql5 (RecQ protein-like 5) | 1 | 0.71 | enough cells in well |
| Pcdhb14 (protocadherin beta 14) | 1 | 1.72 | enough cells in well |
| Tceanc2 | 1 | -1.03 | enough cells in well |
| Tceanc2 | 2 | – | fewer than 50 cells per well; well left out of calls |
| Acadvl (acyl-Coenzyme A dehydrogenase, very long chain) | 1 | -0.43 | enough cells in well |
| Svbp (small vasohibin binding protein) | 1 | 0.2 | enough cells in well |
| Jph4 (junctophilin 4) | 1 | 0.21 | enough cells in well |
| Ucp3 | 1 | 0.6 | enough cells in well |
| Ndufaf4 (NADH:ubiquinone oxidoreductase complex assembly factor 4) | 1 | -1.4 (active) | enough cells in well |
| Arfip2 (ARF interacting protein 2) | 1 | – | fewer than 50 cells per well; well left out of calls |
| Barx1 (BarH-like homeobox 1) | 1 | 1.31 | enough cells in well |
| Shld2 (shieldin complex subunit 2) | 1 | -0.52 | enough cells in well |
| Klf3 (Kruppel-like transcription factor 3 (basic)) | 1 | -0.76 | enough cells in well |
| Magi1 | 1 | 2.68 | enough cells in well |
| Shprh (SNF2 histone linker PHD RING helicase) | 1 | -0.28 | enough cells in well |
| Lilrb4b | 1 | -1.01 | enough cells in well |
| Rbm39 (RNA binding motif protein 39) | 1 | -0.21 | enough cells in well |
| Pcdhgb7 (protocadherin gamma subfamily B, 7) | 1 | -1.17 | enough cells in well |
| Adamts16 (ADAM metallopeptidase with thrombospondin type 1 motif 16) | 1 | -0.81 | enough cells in well |
| Jak3 (Janus kinase 3) | 1 | 0.86 | enough cells in well |
| Slc16a11 | 1 | -1.1 | enough cells in well |
| Cyp1b1 (cytochrome P450, family 1, subfamily b, polypeptide 1) | 1 | -0.06 | enough cells in well |
| Rsl1d1 (ribosomal L1 domain containing 1) | 1 | 0.82 | enough cells in well |
| Nfatc2ip | 1 | -1.21 | enough cells in well |
| Ms4a3 (membrane-spanning 4-domains, subfamily A, member 3) | 1 | 1.39 | enough cells in well |

Next part; the last 3 above are carried over.
| gene | reagent | Tnf reporter robust z-score | fewer than 50 cells in well |
| --- | --- | --- | --- |
| Rsl1d1 (ribosomal L1 domain containing 1) | 1 | 0.82 | enough cells in well |
| Nfatc2ip | 1 | -1.21 | enough cells in well |
| Ms4a3 (membrane-spanning 4-domains, subfamily A, member 3) | 1 | 1.39 | enough cells in well |
| Rnf182 (ring finger protein 182) | 1 | -1.19 | enough cells in well |
| Slx9 (SLX9 ribosome biogenesis factor) | 1 | 1.86 | enough cells in well |
| 9630028B13Rik (RIKEN cDNA 9630028B13 gene) | 1 | 2.89 | enough cells in well |
| Dnajc16 (DnaJ heat shock protein family (Hsp40) member C16) | 1 | -0.87 | enough cells in well |
| Raver1 (ribonucleoprotein, PTB-binding 1) | 1 | 0.25 | enough cells in well |
| Or4k15c (olfactory receptor family 4 subfamily K member 15C) | 1 | – | fewer than 50 cells per well; well left out of calls |
| Macrod1 (mono-ADP ribosylhydrolase 1) | 1 | -1.04 | enough cells in well |
| Bnip5 (BCL2 interacting protein 5) | 1 | -0.01 | enough cells in well |
| Xpo5 (exportin 5) | 1 | 1.1 | enough cells in well |
| Pcm1 (pericentriolar material 1) | 1 | 0.54 | enough cells in well |
| Stra8 (stimulated by retinoic acid gene 8) | 1 | 0.36 | enough cells in well |
| Purb (purine rich element binding protein B) | 1 | -0.63 | enough cells in well |
| Mical1 | 1 | -0.18 | enough cells in well |
| Ccn1 (cellular communication network factor 1) | 1 | -0.24 | enough cells in well |
| Dhx33 (DEAH-box helicase 33) | 1 | -1.67 (active) | enough cells in well |
| Ints15 (integrator complex subunit 15) | 1 | 0.11 | enough cells in well |
| Ncor1 (nuclear receptor co-repressor 1) | 1 | 0.55 | enough cells in well |
| Exoc2 (exocyst complex component 2) | 1 | -0.6 | enough cells in well |
| Tmem254 (transmembrane protein 254) | 1 | -0.33 | enough cells in well |
| Itga11 (integrin alpha 11) | 1 | 1.36 | enough cells in well |
| Gpatch4 (G patch domain containing 4) | 1 | 0.31 | enough cells in well |
| Iqce (IQ motif containing E) | 1 | 1.72 | enough cells in well |
| Rngtt (RNA guanylyltransferase and 5'-phosphatase) | 1 | -1.04 | enough cells in well |
| Tmcc3 (transmembrane and coiled coil domains 3) | 1 | -0.63 | enough cells in well |
| Fcgrt (Fc fragment of IgG receptor and transporter) | 1 | 0.7 | enough cells in well |
| Mbd1 (methyl-CpG binding domain protein 1) | 1 | -0.49 | enough cells in well |
| Olr1 (oxidized low density lipoprotein (lectin-like) receptor 1) | 1 | -0.25 | enough cells in well |
| Slc22a3 | 1 | -0.46 | enough cells in well |
